Laboratory results: PubChem BioAssay AID1259424 (University of Nebraska Medical Center, 2018)
Test: 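Find knockdowns that reproduce the expression shifts seen after KSR1 loss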 (primary screen). System: human HCT116 colon cancer cells. Reagents: siRNA pool against human genes, 50 nM. Detection: 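Log2 levels of six mRNAs (branched-DNA multiplex), adjusted by two reference genes and the non-targeting median, then scored against the average KSR1 knockdown pattern as Pearson r and euclidean distance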. Scale: mean correlation with KSR1 profile and KSR1 correlation: higher = expression change more like KSR1 knockdown; mean distance from KSR1 profile: higher = expression change less like KSR1 knockdown.
In all, the deposit lists about 14,000 reagents; below is a random part of them. 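Higher correlation or smaller distance means closer resemblance to KSR1 loss; control wells, including KSR1 knockdowns, recur on many plates.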 Some reagents were tested in more than one well and are listed for each. Not stated in the record: the time to read-out.

gene symbol | mean correlation with KSR1 profile | mean distance from KSR1 profile | KSR1 correlation, replicate 1 | KSR1 correlation, replicate 2 | KSR1 correlation, replicate 3
POLR3GL | 0.724 | 1.1 | 0.624 | 0.638 | 0.723
CYP2B6 | 0.488 | 3.11 | 0.545 | 0.405 | 0.439
OCLM (retired record) | 0.0746 | 0.755 | 0.441 | 0.0484 | -0.545
TMEM156 | 0.755 | 1.63 | 0.796 | 0.657 | 0.798
PDGFD | 0.247 | 1.94 | -0.0388 | 0.204 | 0.268
ANKRD1 | -0.418 | 3.06 | -0.238 | -0.471 | -0.339
CLUL1 | 0.471 | 1.59 | 0.106 | 0.442 | 0.258
OR1J2 | -0.514 | 2.86 | -0.4 | -0.623 | -0.444
OR1J2 | 0.839 | 3.26 | 0.786 | 0.821 | 0.892
ZCCHC3 | 0.546 | 1.3 | 0.491 | 0.776 | 0.0658
CAPS2 | 0.0959 | 2.97 | 0.0521 | -0.0195 | -0.0983
UBE2R2 | 0.088 | 1.6 | 0.0963 | -0.127 | 0.112
ZNF215 | -0.0914 | 1.3 | -0.181 | 0.0182 | -0.177
DRD3 | 0.451 | 1.71 | 0.271 | 0.411 | 0.528
CDK7 | -0.228 | 3.31 | -0.222 | -0.188 | -0.393
PAK1 | 0.353 | 3.77 | 0.422 | -0.162 | 0.72
RGPD5 | 0.465 | 1.94 | 0.371 | 0.47 | 0.189
RABGGTA | -0.442 | 3.58 | -0.479 | -0.42 | -0.497
SEM1 | -0.741 | 3.06 | -0.689 | -0.757 | -0.788
TLR2 | 0.32 | 1.85 | 0.365 | 0.232 | 0.218
PPM1D | 0.0222 | 1.88 | -0.0225 | -0.0507 | 0.0755
TMPRSS4 | 0.0293 | 3.3 | 0.285 | -0.0742 | 0.167
STX4 | 0.0419 | 2.03 | 0.092 | -0.0851 | 0.0677
BPI | -0.429 | 2.38 | -0.438 | -0.393 | -0.33
GPBAR1 | 0.154 | 2.01 | 0.264 | -0.0256 | 0.366
XYLT2 | 0.183 | 2.3 | 0.411 | 0.0939 | 0.0881
EHHADH | -0.719 | 1.8 | -0.642 | -0.812 | -0.748
LHX4 | 0.103 | 1.43 | 0.412 | 0.504 | -0.234
EIF1AD | 0.0701 | 1.89 | -0.135 | -0.0967 | 0.336
TRIM11 | 0.00899 | 2.55 | -0.208 | 0.128 | -0.0787
PSG2 | 0.231 | 1.37 | 0.234 | 0.202 | 0.342
NANP | -0.0171 | 2.68 | 0.0403 | -0.129 | -0.0763
HORMAD1 | 0.74 | 3.26 | 0.7 | 0.734 | 0.699
TMEM184C | -0.0809 | 1.4 | -0.408 | -0.148 | -0.0505
AP5Z1 | -0.235 | 1.67 | -0.0635 | -0.278 | -0.269
ADCK5 | 0.602 | 4.36 | 0.446 | 0.586 | 0.208
MBL2 | 0.375 | 1.26 | 0.27 | -0.0222 | 0.149
SNHG12 | 0.392 | 2.73 | 0.433 | 0.362 | 0.00591
TRIT1 | 0.0018 | 2.32 | -0.0229 | 0.0123 | -0.196
RAPGEF5 | 0.23 | 1.96 | 0.0941 | 0.628 | 0.0733
SOX17 | 0.654 | 0.543 | 0.465 | 0.385 | 0.444
RPL27 | -0.265 | 4.45 | -0.312 | -0.253 | -0.116
ZNF398 | 0.284 | 1.89 | 0.439 | 0.288 | 0.52
GLO1 | -0.305 | 2.88 | -0.562 | -0.678 | -0.221
CYB5A | 0.229 | 1.29 | 0.412 | 0.213 | 0.109
LRRC20 | -0.631 | 3.46 | -0.395 | -0.54 | -0.535
EIF3M | 0.669 | 3.31 | 0.669 | 0.875 | 0.278
CREB1 | 0.677 | 2.21 | 0.809 | 0.525 | 0.463
SLC10A2 | 0.3 | 1.73 | 0.303 | 0.231 | 0.345
RGS20 | 0.702 | 1.36 | 0.738 | 0.764 | 0.5
CELF5 | -0.358 | 2.83 | -0.126 | -0.308 | -0.444
CDKN3 | 0.796 | 1.62 | 0.676 | 0.653 | 0.862
PHF23 | -0.707 | 1.51 | -0.811 | -0.663 | -0.846
ADAMTS14 | -0.533 | 7.6 | -0.0358 | -0.024 | -0.289
ARHGAP15 | 0.0289 | 1.43 | -0.00284 | 0.12 | 0.226
ZFP36L2 | -0.465 | 3.76 | -0.431 | -0.542 | -0.552
TENT5C | 0.159 | 2.12 | 0.149 | 0.191 | 0.0321
GPT | 0.165 | 1.51 | -0.0486 | 0.0678 | 0.307
MAP2K7 | 0.91 | 0.865 | 0.783 | 0.929 | 0.77
SERBP1 | -0.784 | 2.95 | -0.618 | -0.828 | -0.718
MAP3K10 | 0.29 | 3.17 | 0.471 | 0.446 | -0.17
ABCF2 | 0.137 | 1.55 | 0.298 | 0.222 | 0.133
POLR3F | -0.539 | 3.63 | -0.439 | -0.477 | -0.575
